# Source: PubChem BioAssay AID1487 (National Center for Advancing Translational Sciences (NCATS), 2009)
# In all, about 200,000 compounds went through this assay and about 25 (0.01%) were called active. The shares of active, inactive and inconclusive entries below differ from those in the screen. The call rests on the fitted dose curve; in most records, active means well fitted inhibition curve with a large enough effect in the signal ratio, with a control signal flat (not every such curve was filed as active); inconclusive means small, poorly fitted or top-dose-only effect, or effect the other way, or a change in a side signal; inactive means flat fitted curve, though single readings scatter; the % refers to the signal ratio. Potencies of inconclusive entries are doubtful fits and often do not repeat.
# Experiment: qHTS Assay for Modulators of Lamin A Splicing
# Conditions: HeLa LMNA splicing GFP/RFP minigene ratio, 48 h; ratio change, negative = inhibition: at 46.1 µM (top of the series) unless noted
# How it was run: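 S3 HeLa cells stably expressing lamin A-EGFP splicing minigene plus DsRed2, 600 cells/well, 48 h compound exposure at 37C. Laser-scanning cytometry; analysed as GFP (500-530 nm)/RFP (575-640 nm) total intensity ratio; 0.5% DMSO vehicle.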
# On the % scale 0 is the no-effect control and ±100 the full control effect; potency means the concentration at half of the fitted maximal effect.
SMILES,"ratio change, negative = inhibition",Potency
O=C(NC1C=CS(=O)(=O)C1)c1sc2ccccc2c1Cl (stereo not drawn),inconclusive: 54.7%,–
Cc1ccc(NC(=O)CSc2nnc(NC(=O)NC3CCCCC3)s2)cc1,inconclusive: 4.29% [at 46 µM],–
CCc1cccc(N(CC(=O)NCc2ccc(F)cc2)C(=O)c2csnn2)c1,inconclusive: -18% [at 46 µM],–
CC(C)CC1NC(=O)N(CC(=O)NC2CCCc3ccccc32)C1=O (stereo not drawn),inconclusive: 22.6% [at 46 µM],–
CCC(CC)NC(=O)c1n[nH]c(=O)c2ccccc12,inconclusive: 0.227%,–
COc1ccc(/C=C(/C(=O)NCc2ccccc2)c2ccccc2)cc1,–,"inconclusive: 17.8 µM [falling, partial curve, poor fit]"
COc1ccc(Nc2cc(C)c3cc(NC(=O)COc4cccc(C)c4)ccc3n2)cc1,inconclusive: -18.7% [at 46 µM],–
Cc1cc(C)c(Cn2cnc3nc4c(cc3c2=O)CCCC4)c(C)c1,inconclusive: -32.4% [at 46 µM],–
CC1CN(C(=O)COC(=O)c2ccc(Cl)c(S(=O)(=O)N3CCCCC3)c2)CC(C)O1 (stereo not drawn),inactive: 3.58% [at 46 µM],–
Cc1cccc(Oc2cc(NC(=O)Cn3cnc([N+](=O)[O-])n3)cc([N+](=O)[O-])c2)c1,inconclusive: -38.3%,–
CCOc1ccc(C(=O)NCC(c2ccc3c(c2)OCO3)N2CCN(C)CC2)cc1 (stereo not drawn),inconclusive: -20.5% [at 46 µM],–
O=S(=O)(c1ccc(F)cc1)N1CCN(Cc2ccccn2)CC1,inconclusive: 16.4% [at 46 µM],–
COc1ccc(-c2noc(COc3ccc(C)cc3C)n2)cc1OC,inconclusive: -24.4% [at 46 µM],–
Nc1nc(SCc2ccccc2)[nH]c(=O)c1-c1ccccc1,inactive: -18.3%,–
CC(C)[C@H](Nc1ccc(S(=O)(=O)N2CCOCC2)cc1[N+](=O)[O-])C(=O)OCC(N)=O,inactive: 1.84%,–
C=CCN1C(=O)C2(NC(=O)c3ccccc3N2)c2ccccc21 (stereo not drawn),inactive: 8.02% [at 46 µM],–
CCOC(=O)c1sc2nc(-c3ccccc3)ccc2c1N,inactive: -6.13%,–
COc1ccc(/C=N/NC(=O)CCOc2ccccc2C)cc1OC,inconclusive: -30%,–
Cc1cc(SCC(=O)NCc2ccccc2Cl)nc(=O)[nH]1,inactive: 4.73% [at 46 µM],–
NC(=O)C(=O)N/N=C/c1ccc([N+](=O)[O-])o1,inconclusive: 36.9%,–
O=C(CSc1nnnn1-c1ccc2c(c1)OCCO2)c1cccc2c1OCCO2,inconclusive: -37.2%,–
Cc1nn(Cc2ccccc2Cl)c2sc(C(=O)Nc3nccs3)cc12,inconclusive: 3.83%,–
COc1ccccc1N(CC(O)COc1ccccc1C)S(=O)(=O)c1ccccc1 (stereo not drawn),inconclusive: -18.6%,–
Cc1ccccc1C(=O)Nc1cccc(C(=O)OCc2cc(=O)n3c(C)csc3n2)c1,inconclusive: -35.8% [at 46 µM],–
CCOC(=O)C1=C(NC(=S)NC(=O)c2ccccc2)c2ccccc2CC1(C)CC (stereo not drawn),–,"inconclusive: 11.2 µM [fluorescent, partial curve]"
O=C(c1cccc(F)c1)N1CCN(C(=O)c2nn3cccnc3c2Cl)CC1,inactive: 5.69%,–
CCN(CC)S(=O)(=O)c1ccc(/C=C/C(=O)OCC(=O)N(C(C)C)C(C)C)cc1,inactive: -0.942% [at 46 µM],–

# 13 entries from above in a different format.
SMILES | ratio change, negative = inhibition | Potency
CC(C)[C@H](Nc1ccc(S(=O)(=O)N2CCOCC2)cc1[N+](=O)[O-])C(=O)OCC(N)=O | inactive: 1.84% | –
C=CCN1C(=O)C2(NC(=O)c3ccccc3N2)c2ccccc21 (stereo not drawn) | inactive: 8.02% [at 46 µM] | –
CCOC(=O)c1sc2nc(-c3ccccc3)ccc2c1N | inactive: -6.13% | –
COc1ccc(/C=N/NC(=O)CCOc2ccccc2C)cc1OC | inconclusive: -30% | –
Cc1cc(SCC(=O)NCc2ccccc2Cl)nc(=O)[nH]1 | inactive: 4.73% [at 46 µM] | –
NC(=O)C(=O)N/N=C/c1ccc([N+](=O)[O-])o1 | inconclusive: 36.9% | –
O=C(CSc1nnnn1-c1ccc2c(c1)OCCO2)c1cccc2c1OCCO2 | inconclusive: -37.2% | –
Cc1nn(Cc2ccccc2Cl)c2sc(C(=O)Nc3nccs3)cc12 | inconclusive: 3.83% | –
COc1ccccc1N(CC(O)COc1ccccc1C)S(=O)(=O)c1ccccc1 (stereo not drawn) | inconclusive: -18.6% | –
Cc1ccccc1C(=O)Nc1cccc(C(=O)OCc2cc(=O)n3c(C)csc3n2)c1 | inconclusive: -35.8% [at 46 µM] | –
CCOC(=O)C1=C(NC(=S)NC(=O)c2ccccc2)c2ccccc2CC1(C)CC (stereo not drawn) | – | inconclusive: 11.2 µM [fluorescent, partial curve]
O=C(c1cccc(F)c1)N1CCN(C(=O)c2nn3cccnc3c2Cl)CC1 | inactive: 5.69% | –
CCN(CC)S(=O)(=O)c1ccc(/C=C/C(=O)OCC(=O)N(C(C)C)C(C)C)cc1 | inactive: -0.942% [at 46 µM] | –

# Next part:

SMILES,"ratio change, negative = inhibition",Potency
CCOc1[nH]n(-c2ccccc2)c(=O)c1C=Nc1ccc(F)cc1F,inconclusive: 39.8% [at 9.22 µM],–
O=C(COc1ccccc1)NCC(=O)N/N=C/c1cc(Br)ccc1OCc1ccccc1,inconclusive: -28%,–
O=C(CS(=O)(=O)c1ccccc1)N1CCc2ccccc21,inconclusive: 29.5% [at 46 µM],–
Cc1sc2ncn(CC(=O)NCc3ccccn3)c(=O)c2c1S(=O)(=O)N1CCOCC1,inactive: 5.33%,–
CCCCCCn1c(CN2CCN(CCO)CC2)nc2c1c(=O)n(C)c(=O)n2C,inactive: -7.44%,–
Cc1cccc(C(=O)Nc2ccc3nc(SCC(=O)N4CCc5ccccc54)sc3c2)c1,inactive: 2.52% [at 46 µM],–
Cc1cccc(NC(=O)CSc2nc(C)cc(C)c2C(=O)Nc2ccc(Cl)cc2)c1,inconclusive: 17.3% [at 46 µM],–
Cc1cc2nc(CSc3ccc(Cl)cc3)cc(=O)n2[nH]1,inconclusive: -41.3% [at 46 µM],–
OCc1ccccc1O,inconclusive: -12%,–
C=CCn1cc(/C=N/N2C(=O)C3C4C=CC(C4)C3C2=O)c2ccccc21 (stereo not drawn),inactive: 10.7% [at 46 µM],–
CC(C)S(=O)(=O)c1csc(NC(=O)Nc2ccc(Cl)cc2)c1,inconclusive: 3.83% [at 46 µM],–
O=S1(=O)N=C(SCCO)c2ccccc21,inactive: 3.41%,–
O=C(N/N=C/c1ccccc1)c1n[nH]c2c1CCCC2,inconclusive: -33.7% [at 46 µM],–
O=C1c2cccc3cccc(c23)C(=O)N1CCN1CCN(CC(O)COc2ccc3ccccc3c2)CC1 (stereo not drawn),inactive: -18.5%,–
CCOc1ccc(-c2nc(CSCC(=O)NCCc3ccccc3)c(C)o2)cc1,inconclusive: -3% [at 46 µM],–
Fc1ccc(-c2nc3cnccn3c2NC2CCCC2)cc1,inconclusive: 15.7% [at 46 µM],–
COc1ccc(C2C3=C(OC(C)=O)c4ccccc4C3=Nc3c2c(=O)n(C)c(=O)n3C)cc1 (stereo not drawn),inconclusive: 19.4% [at 46 µM],–
Cc1ccc(-n2nnnc2SCC(=O)N2CCc3ccccc3C2)c(C)c1,–,"inconclusive: 35.5 µM [falling, single point]"
CC1C(=O)N2CCCc3cc(S(=O)(=O)Nc4ccc(Br)cc4F)cc1c32 (stereo not drawn),inconclusive: 11.7% [at 46 µM],–
CSc1ccc2c(c1)[C@H](N1CCN(C)CC1)Cc1ccccc1S2,inconclusive: -16.3%,–
O=C(Cn1c(=O)oc2cc(S(=O)(=O)NCc3ccccc3)ccc21)N(CCO)Cc1ccccc1,inconclusive: 11.2% [at 46 µM],–
Cc1ccc(N2C(=O)c3ccccc3C2Nc2ccc(S(=O)(=O)N3CCCCC3)cc2)nc1 (stereo not drawn),inactive: -0.114%,–
CC1CCCN(C(=O)C2CCN(CCCc3ccccc3)CC2)C1 (stereo not drawn),inconclusive: 0.924%,–
O=C(COc1ccccc1)NCC(=O)N/N=C/c1cccs1,inactive: 2.96%,–
CCNC(=O)c1ccc(-n2c(-c3ccccc3)cc3c2CCCCC3)cc1,inactive: -17.1% [at 46 µM],–
N#Cc1sc2nc(-c3ccccc3)cc(-c3ccco3)c2c1N,inactive: 8.18%,–
